Measured values as given in patent US6624157B2, “Thiadioxobenzodiazepine inhibitors of farnesyl protein transferase” (Bristol-Myers Squibb Company, priority 1996, dated 2003).
Structures can show the parent of a compound that is named as a salt. Some of these results come from one statement about several compounds together.

molecular target: farnesyl transferase (Homo sapiens, UniProt P49354+P49356); assay: Farnesyl transferase assay; format: biochemical; conditions: assay as described in V. Manne et al., Drug Development Research, 34, 121-137 (1995); bounds printed in nM (lower) and μM (upper)

IC50 values (inhibition of farnesyl transferase), 0.1 nM and 100000 nM:
O=S1(=O)c2ccccc2N(Cc2cnc[nH]2)CCN1c1ccccc1-c1ccccc1 [Example 29, 2,3,4,5-Tetrahydro-2-([1,1′-biphenyl]-2-yl)-5-(1H-imidazol-4-ylmethyl)-1,2,5-benzothiadiazepine, 1,1-dioxide, monohydrochloride]
NC(=O)c1ccccc1N1CCN(Cc2cnc[nH]2)c2ccccc2S1(=O)=O [Example 30, 2-[2,3,4,5-Tetrahydro-5-(1H-imidazol-4-ylmethyl)-1,2,5-benzothiadiazepin-2-yl]benzamide, 1,1-dioxide, monohydrochloride]
CC(C)CCc1noc(-c2ccccc2N2CCN(Cc3cnc[nH]3)c3ccccc3S2(=O)=O)n1 [Example 31, 2,3,4,5-Tetrahydro-5-(1H-imidazol-4-ylmethyl)-2-[2-[3-(3-methylbutyl)-1,2,4-oxadiazol-5-yl]phenyl]-1,2,5-benzothiadiazepine, 1,1-dioxide, monohydrochloride]
CCc1noc(-c2ccccc2N2CCN(Cc3cnc[nH]3)c3ccccc3S2(=O)=O)n1 [Example 32, 2,3,4,5-Tetrahydro-2-[2-(3-ethyl-1,2,4-oxadiazol-5-yl)phenyl]-5-(1H-imidazol-4-ylmethyl)-1,2,5-benzothiadiazepine, 1,1-dioxide, monohydrochloride]
CCc1nnc(-c2ccccc2N2CCN(Cc3cnc[nH]3)c3ccccc3S2(=O)=O)o1 [Example 33, 2,3,4,5-Tetrahydro-2-[2-(2-ethyl-1,3,4-oxadiazol-5-yl)phenyl]-5-(1H-imidazol-4-ylmethyl)-1,2,5-benzothiadiazepine, 1,1-dioxide, monohydrochloride]
O=S1(=O)c2cc(Br)ccc2N(Cc2cnc[nH]2)CCN1c1ccccc1-c1ccccc1 [Example 34, 2,3,4,5-Tetrahydro-2-([1,1′-biphenyl]-2-yl)-8-bromo-5-(1H-imidazol-4-ylmethyl)-1,2,5-benzothiadiazepine, 1,1-dioxide, monohydrochloride]
O=S1(=O)c2ccccc2N(Cc2cnc[nH]2)CCN1c1ccccc1OCc1ccccc1 [Example 35, 2,3,4,5-Tetrahydro-5-(1H-imidazol-4-ylmethyl)-2-[2-(phenylmethoxy)phenyl]-1,2,5-benzothiadiazepine, 1,1-dioxide, monohydrochloride]
N#Cc1ccc2c(c1)S(=O)(=O)N(c1ccccc1-c1ccccc1)CCN2Cc1cnc[nH]1 [Example 36, 2,3,4,5-Tetrahydro-2-([1,1′-biphenyl]-2-yl)-5-(1H-imidazol-4-ylmethyl)-1,2,5-benzothiadiazepine-8-carbonitrile, 1,1-dioxide, monohydrochloride]
CC(=O)NCc1ccc2c(c1)S(=O)(=O)N(c1ccccc1-c1ccccc1)CCN2Cc1cnc[nH]1 [Example 37, N-[[2,3,4,5-Tetrahydro-2-([1,1′-biphenyl]-2-yl)-5-(1H-imidazol-4-ylmethyl)-1,2,5-benzothiadiazepin-8-yl]methyl]acetamide, 1,1-dioxide, monohydrochloride]
N#Cc1ccccc1Oc1ccccc1N1CCN(Cc2cnc[nH]2)c2ccccc2S1(=O)=O [Example 38, 2-[2-[2,3,4,5-Tetrahydro-5-(1H-imidazol-4-ylmethyl)-1,2,5-benzothiadiazepin-2-yl]phenoxylbenzonitrile, 1,1-dioxide, monohydrochloride]
O=S1(=O)c2cc(Br)ccc2N(Cc2cnc[nH]2)CCN1c1ccccc1OCc1ccccc1 [Example 39, 8-Bromo-2,3,4,5-tetrahydro-5-(1H-imidazol-4-ylmethyl)-2-[2-(phenylmethoxy)phenyl]-1,2,5-benzothiadiazepine, 1,1-dioxide, monohydrochloride]
CN(C)c1ccc2c(c1)N(Cc1cnc[nH]1)CCN(CCc1ccccc1)S2(=O)=O [Example 40, 7-(Dimethylamino)-2,3,4,5-tetrahydro-5-(1H-imidazol-4-ylmethyl)-2-(2-phenylethyl)-1,2,5-benzothiadiazepine, 1,1-dioxide, monohydrochloride]
CN(C)c1cc2c(cc1Br)S(=O)(=O)N(CCc1ccccc1)CCN2Cc1cnc[nH]1 [Example 41, 8-Bromo-7-(dimethylamino)-2,3,4,5-tetrahydro-5-(1H-imidazol-4-ylmethyl)-2-(2-phenylethyl)-1,2,5-benzothiadiazepine, 1,1-dioxide, monohydrochloride]
O=S1(=O)c2ccc(Br)cc2N(Cc2cnc[nH]2)CCN1CCc1ccccc1 [Example 42, 7-Bromo-2,3,4,5-tetrahydro-5-(1H-imidazol-4-ylmethyl)-2-(2-phenylethyl)-1,2,5-benzothiadiazepine, 1,1-dioxide, monohydrochloride]
O=S1(=O)c2cc(Br)c(Br)cc2N(Cc2cnc[nH]2)CCN1CCc1ccccc1 [Example 43, 7,8-Dibromo-2,3,4,5-tetrahydro-5-(1H-imidazol-4-ylmethyl)-2-(2-phenylethyl)-1,2,5-benzothiadiazepine, 1,1-dioxide, monohydrochloride]
O=S1(=O)c2cc3c(cc2N(Cc2cnc[nH]2)CCN1CCc1ccccc1)CCC3 [Example 44, 3,4,5,7,8,9-Hexahydro-5-(1H-imidazol-4-ylmethyl)-2-(2-phenylethyl)-2H-indeno[5,6-f]-1,2,5-thiadiazepine, 1,1-dioxide, monohydrochloride]
CC(=O)Nc1ccc2c(c1)N(Cc1cnc[nH]1)CCN(c1ccccc1-c1ccccc1)S2(=O)=O [Example 45, N-[2-([1,1′-Biphenyl]-2-yl)-2,3,4,5-tetrahydro-5-(1H-imidazol-4-ylmethyl)-1,2,5-benzothiadiazepin-7-yl]acetamide, 1,1-dioxide, monohydrochloride]
Nc1ccc2c(c1)N(Cc1cnc[nH]1)CCN(c1ccccc1-c1ccccc1)S2(=O)=O [Example 46, 2-([1,1′-Biphenyl]-2-yl)-2,3,4,5-tetrahydro-5-(1H-imidazol-4-ylmethyl)-1,2,5-benzothiadiazepin-7-amine, 1,1-dioxide, monohydrochloride]
O=S1(=O)c2cc(Br)c(Br)cc2N(Cc2cnc[nH]2)CCN1c1ccccc1-c1ccccc1 [Example 47, 2-([1,1′-Biphenyl]-2-yl)-7,8-dibromo-2,3,4,5-tetrahydro-5-(1H-imidazol-4-ylmethyl)-1,2,5-benzothiadiazepine, 1,1-dioxide, monohydrochloride]
O=S1(=O)c2cc(Br)c(Br)cc2N(Cc2cnc[nH]2)CCN1c1c(Br)cccc1-c1ccccc1 [Example 48, 2-(3-Bromo[1,1′-Biphenyl]-2-yl)-7,8-dibromo-2,3,4,5-tetrahydro-5-(1H-imidazol-4-ylmethyl)-1,2,5-benzothiadiazepine, 1,1-dioxide, monohydrochloride]
O=S1(=O)c2ccc(NCc3cnc[nH]3)cc2N(Cc2cnc[nH]2)CCN1c1ccccc1-c1ccccc1 [Example 49, 2-([1,1′-Biphenyl]-2-yl)-2,3,4,5-tetrahydro-N,5-bis(1H-imidazol-4-ylmethyl)-1,2,5-benzothiadiazepin-7-amine, 1,1-dioxide, monohydrochloride]
CN(Cc1ccccc1)C(=O)CN1C(Cc2ccccc2)CN(Cc2cnc[nH]2)c2ccc(Br)cc2S1(=O)=O (stereo not shown) [Example 50, 8-Bromo-4,5-dihydro-5-(1H-imidazol-4-ylmethyl)-N-methyl-N,3-bis(phenylmethyl)-1,2,5-benzothiadiazepine-2(3H)-acetamide, 1,1-dioxide, monohydrochloride]
